# Results: PubChem BioAssay AID540276 (National Center for Advancing Translational Sciences (NCATS), 2011)
# Where “and” joins values, the source holds several entries; their conditions need not be identical. Identical values can stand only once. In all, about 300,000 compounds went through this assay and about 5,400 (1.8%) were called active. Inconclusive results, whose numbers are uncertain, are shown with a selection of clear calls. Calls follow the shape of the full dose curve; tested in HEK293 cells. Potencies beside an inconclusive call are fits to weak or partial responses and may not hold up.
# Experiment: qHTS for inhibitors of binding or entry into cells for Marburg Virus
# Conditions: Marburg virus pseudotyped entry inhibition, cell reporter; series mostly up to 37.8 µM
# Potency is read from the fitted curve at half-maximal effect.
row,Structure (SMILES),Potency
1,CC1CC(NC(=O)c2c(O)nc3sccn3c2=O)CC(C)(C)C1 (stereo not given),"inconclusive: 35.5 µM [inhibitor, single point]"
2,CC(=O)N1CCN2C(=O)C1CCCC(=O)c1cc(C(C)C)ccc12 (stereo not given),inactive
3,COC(=O)c1c[nH]c2c1-c1cc(C(=O)OCc3ccccc3)n(S(=O)(=O)c3ccc(C)cc3)c1C(=O)C2=O,inactive
4,Cc1ccc(C(NC(=O)N2CCCCC2)=C(Cl)Cl)cc1F,inactive
5,COc1ccc(C2Nc3ccccc3NC3=C2C(=O)CC(C)(C)C3)cc1O (stereo not given),"inconclusive: 3.16 µM [activator, partial curve, poor fit]"
6,CCOC(=O)c1c(NC(C)=O)c2c3c(sc2n1Cc1cccc(Cl)c1)CCCC3,"inconclusive: 2.82 µM [inhibitor, partial curve, poor fit]"
7,CCCCNC(=S)N/N=C/c1ccc(C)s1,inactive
8,COC(=O)Cc1c(C)nc2nc(NCc3c(F)cccc3Cl)[nH]n2c1=O,"inconclusive: 35.5 µM [activator, single point]"
9,O=C(COc1ncnc2sccc12)N1CCN(S(=O)(=O)c2ccc(Cl)cc2)CC1,inactive
10,COc1cc(/C=N/Nc2ccccc2[N+](=O)[O-])cc(OC)c1O,inactive
11,COc1ccc(N2CCN(c3cc(C)nc4ccc(OC)cc34)CC2)cc1,"inconclusive: 35.5 µM [inhibitor, single point]"
12,Cc1ccc(-c2[nH]c3ccccc3c2C(C[N+](=O)[O-])c2ccco2)cc1 (stereo not given),"inconclusive: 35.5 µM [inhibitor, single point]"
13,CCN=C1S/C(=C\c2ccc(OCC)c(OC)c2)C(=O)N1CC,"inconclusive: 35.5 µM [inhibitor, single point]"
14,CC1=CC2(C#N)C3(N=C(N)C2(C#N)C(c2ccccc2)N1)OCCO3 (stereo not given),"inconclusive: 1.26 µM [inhibitor, single point]"
15,Cn1nnc(NC(=S)NC(=O)c2cccs2)n1,"inconclusive: 2.82 µM [activator, full curve]"
16,COCCNC(=O)CCc1c(C)nc2nc(-c3cc(OC)cc(OC)c3)nn2c1C,"inconclusive: 5.62 µM [inhibitor, single point]"
17,COc1cc(/C=N/N2C(=O)c3ccccc3C2=O)ccc1O,inactive
18,CCC1(O)CCCC2C3CCC4CC(=O)CCC4(C)C3C(=O)CC21C (stereo not given),inactive
19,CCc1ccc(N2CN=c3s/c(=C\c4ccccc4)c(=O)n3C2)cc1,inactive
20,C=CCN(CC=C)CC(O)CN(c1cc([N+](=O)[O-])ccc1OC)S(=O)(=O)c1ccccc1 (stereo not given),"inconclusive: 35.5 µM [inhibitor, partial curve, poor fit]"
21,Cn1cc(/C=N/n2cnc3sc4c(c3c2=O)CCCC4)c2ccccc21,"inconclusive: 3.26 µM [inhibitor, full curve]"
22,O=C(O)C1Cc2c([nH]c3ccccc23)C(c2ccc3c(c2)OCO3)N1 (stereo not given),inactive
23,O=C(CCCCCN1C(=O)CCC1=O)Nc1ccc(Cl)c(C(F)(F)F)c1,inactive
24,Clc1ccc(-c2n[nH]c3c2CCCC3)cc1,inactive
25,CCn1c2ccccc2c2cc(/C=N/n3cn[nH]c3=S)ccc21,active: 10.3 µM

row,Structure (SMILES),Potency
1,CC1CC(C)CN(S(=O)(=O)c2ccc(NC(=O)CN3CCCCCC3)cc2)C1 (stereo not given),"inconclusive: 35.5 µM [inhibitor, single point]"
2,CN1C2C=C3C(C#N)=C(N)C(C#N)(C#N)[C@H](c4c(F)cccc4F)[C@H]3C1CC2 (stereo not given in full),"inconclusive: 3.26 µM [inhibitor, partial curve, poor fit]"
3,COc1ccc(NC(=O)COC(=O)C2CC3C=CC2C3)cc1 (stereo not given),inactive
4,COC(=O)c1sc(NC(=O)COc2ccccc2)nc1C,inactive
5,CCOc1ccc2nc(NC(=O)CSC3=NCCS3)sc2c1,"inconclusive: 12.6 µM [inhibitor, partial curve, poor fit]"
6,CC(C)c1ccc(C(=O)OC2CCOC2=O)cc1 (stereo not given),"inconclusive: 31.6 µM [activator, single point]"
7,Cc1cc(C)nc(/N=C(\N)Nc2ccccc2-c2ccccc2)n1,"inconclusive: 7.08 µM [inhibitor, partial curve, poor fit]"
8,O=C(c1ccc(O)cc1)c1ccc(Cl)cc1,inactive
9,O=C1c2ccccc2C(=O)N1Nc1ccccc1,"inconclusive: 1.58 µM [activator, partial curve, poor fit]"
10,S=C1NCC(c2ccccc2)S1 (stereo not given),"inconclusive: 3.16 µM [activator, single point]"
11,CN1CCN(S(=O)(=O)c2ccc(Oc3ccc(Br)cc3F)nc2)CC1,"inconclusive: 25.1 µM [inhibitor, single point]"
12,CCCC(CC)Sc1nc2c([nH]1)c(=S)n(C)c(=O)n2C (stereo not given),"inconclusive: 15.8 µM [inhibitor, single point]"
13,Cc1cccc(NC(=O)Nc2cc(C)on2)c1,inactive
14,COC(=O)c1ccc(C(C(=O)NCc2ccccc2)N(Cc2cccs2)C(=O)c2cnccn2)cc1 (stereo not given),"inconclusive: 16.4 µM [inhibitor, single point]"
15,Cc1c(C(=O)NCCSCc2c(F)cccc2Cl)cnn1-c1ccc(Cl)cc1,"inconclusive: 7.94 µM [inhibitor, partial curve, poor fit]"
16,CCC(=O)N1c2nc(C(C)C)nn2C2(CCCCC2)[C@@H]2CCCC[C@@H]21,"inconclusive: 20 µM [activator, single point]"
17,O=C(Nc1ccc(F)cc1F)NC1CC1,inactive
18,COc1ccc(CNCC(O)(c2ccccc2)c2ccc(F)cc2)cc1 (stereo not given),active: 11.2 µM
19,Cc1ccc(Nc2nnc(SCn3nnc4ccccc4c3=O)s2)cc1,inactive
20,COc1ccc(NC(=O)c2ccccc2NS(=O)(=O)c2ccc(CNC(C)=O)cc2)c(OC)c1,"inconclusive: 29.1 µM [inhibitor, single point]"
21,CCOC(=O)C1=C(C)NC(=O)CC1c1cc2c(cc1Br)OCO2 (stereo not given),"inconclusive: 10 µM [inhibitor, partial curve, poor fit]"
22,O=C(Nc1ccc(Oc2ccccc2)nc1)C1CCCCN1Cc1cccc(OCCO)c1 (stereo not given),"inconclusive: 2.82 µM [inhibitor, full curve, poor fit]"
23,O=C(CN1C(=O)COc2ccc(S(=O)(=O)N3CCCCCC3)cc21)N1CCN(c2ccccc2)CC1,inactive
24,CCCCCOc1ccc2oc(=O)c3c(c2c1)CCCN3C(=O)CN1CCCC(C(=O)OCC)C1 (stereo not given),"inconclusive: 16.4 µM [inhibitor, partial curve, poor fit]"
25,Cc1cc(C)cc(NC(=O)Cn2nnc(C(=O)NCc3ccco3)c2N)c1,"inconclusive: 355 nM [inhibitor, full curve, poor fit] and inconclusive: 2.24 µM [inhibitor, partial curve, poor fit]"

row,Structure (SMILES),Potency
1,COC(=O)c1cccc(-n2nnnc2SCC(=O)Nc2cc(C)on2)c1,inactive
2,CN(C)c1ccc(/C=N/NC(=O)CN(c2ccccc2Cl)S(C)(=O)=O)cc1Br,"inconclusive: 28.2 µM [inhibitor, single point]"
3,COc1ccc2cc3c(N)nn(C(=O)C4CCC(C(C)(C)C)CC4)c3nc2c1 (stereo not given),inactive
4,O=c1[nH]c(-c2ccccn2)nc(C(F)(F)F)c1Br,"inconclusive: 20 µM [inhibitor, partial curve, poor fit]"
5,N/C(=N\OC(=O)C(c1ccccc1)c1ccccc1)c1ccccn1,inactive
6,Cc1cccc(NC(=O)CNC(=O)Cn2ncc(Cl)c(Cl)c2=O)c1C,"inconclusive: 7.94 µM [inhibitor, partial curve, poor fit]"
7,O=C(COc1ccc(Cl)cc1)Nc1ccc2[nH]ncc2c1,inactive
8,O=C(NC(=S)Nc1ccccc1Cl)c1ccco1,"inconclusive: 6.31 µM [activator, single point]"
9,CCSc1nnc(NC(=O)c2ccc(C)cc2)s1,"inconclusive: 13 µM [inhibitor, partial curve]"
10,COc1cc(C(=O)Nc2nnc(CC(C)(C)C)s2)c([N+](=O)[O-])cc1OC,"inconclusive: 0.631 µM [activator, full curve]"
11,COc1cccc2c1OCC(C(=O)OCc1cccnc1)=C2,inactive
12,O=C(O)c1ccccc1C=NN=C1c2ccccc2-c2ccccc21,inactive
13,CC(=O)Oc1ccccc1C(=O)NC(C)CCc1ccccc1 (stereo not given),inactive
14,O=C(Nc1ccccc1O)c1ccc2c(c1)C(=O)N(c1ccccc1)C2=O,inactive
15,O=C(CSc1nnc(-c2cccnc2)n1Cc1ccco1)c1ccccc1,inactive
16,COCc1cc(=O)[nH]c(Nc2nc3ccc(C)cc3o2)n1,"inconclusive: 35.5 µM [inhibitor, single point]"
17,Cc1cc(C)n2nc(-c3ccccc3)cc2n1,inactive
18,O=C(N/N=C/c1cc2c(cc1Cl)OCO2)c1ccc2c(c1)OCCO2,inactive
19,CCc1nnc(NC(=O)c2nc(S(=O)(=O)Cc3ccccc3)ncc2Cl)s1,"inconclusive: 35.5 µM [inhibitor, single point]"
20,COc1cccc(NC(=O)CCC2CCN(C(=O)Cc3cccc(F)c3)CC2)c1,"inconclusive: 0.891 µM [inhibitor, full curve, poor fit]"
21,Cc1cccc(Nc2ccccc2C(=O)OCC(=O)N2CCOCC2)c1C,"inconclusive: 18.3 µM [inhibitor, single point]"
22,COc1cccc(-c2nc(N)nc(SC)c2C#N)c1,inactive
23,Cc1cccc(C)c1NC(=O)c1sc(Cl)nc1C,inactive
24,CCOC(=O)c1c(-c2ccccc2)oc2ccc(OC)cc12,inactive
25,CCCCN(CCCC)c1nc(OC)nc(-n2nnc(C(C)=O)c2C)n1,"inconclusive: 0.708 µM [inhibitor, full curve, poor fit]"
